PubChem BioAssay AID1259425 – University of Nebraska Medical Center – 2018
Test: 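Compare each knockdown with KSR1 silencing using changes in marker transcripts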 (primary screen). Cell system: HCT116 human colon cancer cells. Reagent: siRNA pool against human genes, 50 nM siRNA. Measured: 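After 50 nM siRNA pool, branched-DNA assay measures six marker transcripts per well, minus blank, normalised to the geometric mean of two housekeeping transcripts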. Reading the numbers: BNIP3L mRNA: higher = more BNIP3L transcript after knockdown.
This is an unselected part of about 14,000 reagents. Further read-outs or replicates are left out here. No sequences are given here. The record does not give: the time to read-out.

gene,"BNIP3L mRNA, set 1"
"PLEKHH3 (pleckstrin homology, MyTH4 and FERM domain containing H3)",0.0745
THBS1 (thrombospondin 1),0.113
GID4 (GID complex subunit 4 homolog),0.117
GML (glycosylphosphatidylinositol anchored molecule like),0.124
WNT7B (Wnt family member 7B),0.0834
EIF1AX (eukaryotic translation initiation factor 1A X-linked),0.0625
"POLG2 (DNA polymerase gamma 2, accessory subunit)",0.0511
"PIM2 (Pim-2 proto-oncogene, serine/threonine kinase)",0.104
ZNF207 (zinc finger protein 207),0.152
ZKSCAN1 (zinc finger with KRAB and SCAN domains 1),0.0828
NRIP3 (nuclear receptor interacting protein 3),0.145
RPS6KC1 (ribosomal protein S6 kinase C1),0.221
DENND2A (DENN domain containing 2A),0.135
IGBP1 (immunoglobulin binding protein 1),0.046
NDST2 (N-deacetylase and N-sulfotransferase 2),0.155
NEFH (neurofilament heavy chain),0.161
"IRAG1 (inositol 1,4,5-triphosphate receptor associated 1)",0.224
ZNF577 (zinc finger protein 577),0.2
NWD2 (NACHT and WD repeat domain containing 2),0.127
CELA2A (chymotrypsin like elastase 2A),0.0998
MSTN (myostatin),0.0546
MFGE8 (milk fat globule EGF and factor V/VIII domain containing),0.101
ZNF341 (zinc finger protein 341),0.135
BAD (BCL2 associated agonist of cell death),0.197
HES2 (hes family bHLH transcription factor 2),0.15
PSMB7 (proteasome 20S subunit beta 7),0.733
NAALADL1 (N-acetylated alpha-linked acidic dipeptidase like 1),0.32
SF3B1 (splicing factor 3b subunit 1),0.141
RNF43 (ring finger protein 43),0.196
PSMA3 (proteasome 20S subunit alpha 3),0.709
GPR21 (G protein-coupled receptor 21),0.558
STAG3L1 (STAG3 cohesin complex component like 1 (pseudogene)),0.0614

Individual results from the list.
MFGE8 (milk fat globule EGF and factor V/VIII domain containing), BNIP3L mRNA, set 1 = 0.101
Entry of RPS6KC1 (ribosomal protein S6 kinase C1) in “BNIP3L mRNA, set 1”: 0.221
ZNF207 (zinc finger protein 207), BNIP3L mRNA, set 1 = 0.152
SF3B1 (splicing factor 3b subunit 1), BNIP3L mRNA, set 1 → 0.141

The listing continues.
gene,"BNIP3L mRNA, set 1"
NDC1 (NDC1 transmembrane nucleoporin),0.101
EPCIP (exosomal polycystin 1 interacting protein),0.0941
SLIRP (SRA stem-loop interacting RNA binding protein),0.148
TMTC1 (transmembrane O-mannosyltransferase targeting cadherins 1),0.375
BTBD3 (BTB domain containing 3),0.0724
UBE2E3 (ubiquitin conjugating enzyme E2 E3),0.0924
GAPDH (glyceraldehyde-3-phosphate dehydrogenase),0.0772
FAM30A (family with sequence similarity 30 member A),0.0301
SRSF1 (serine and arginine rich splicing factor 1),0.348
SHTN1 (shootin 1),0.135
AMY2B (amylase alpha 2B),0.105
GLOD4 (glyoxalase domain containing 4),0.107
SAE1 (SUMO1 activating enzyme subunit 1),0.117
SFMBT1 (Scm like with four mbt domains 1),0.0741
VCPKMT (valosin containing protein lysine methyltransferase),0.113
ZNF91 (zinc finger protein 91),0.125
LRCH1,0.107
UNC93A (unc-93 homolog A),0.0887
